{
  "source": "paper PMC7862700",
  "note": "This is a selection; strong and weak results do not stand in their true shares. At the low end of the ranking the order means little.",
  "data": [
    {"biological_target": "T1, ELK3 (UniProt P41970)", "T1 sequence": "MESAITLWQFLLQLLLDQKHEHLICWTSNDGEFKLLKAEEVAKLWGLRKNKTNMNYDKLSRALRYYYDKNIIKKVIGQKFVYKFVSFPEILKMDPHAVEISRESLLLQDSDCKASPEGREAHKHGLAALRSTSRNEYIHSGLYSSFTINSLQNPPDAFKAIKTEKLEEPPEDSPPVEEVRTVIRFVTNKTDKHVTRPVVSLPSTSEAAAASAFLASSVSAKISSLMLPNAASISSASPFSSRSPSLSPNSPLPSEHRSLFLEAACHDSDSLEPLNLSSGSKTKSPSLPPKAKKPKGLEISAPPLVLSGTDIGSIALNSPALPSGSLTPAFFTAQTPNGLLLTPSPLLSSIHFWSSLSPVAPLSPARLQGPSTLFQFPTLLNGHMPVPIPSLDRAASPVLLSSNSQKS", "experiment": "DAPPL (digital affinity profiling via proximity ligation, sequencing)", "settings": "10 mM Tris-HCl pH 7.5, 50 mM NaCl, 1 mM DTT, 4% glycerol, room temperature, 30 min; GST-TFs on glutathione beads, 16-mer random dsDNA library, 0.1% …; high values mean tight binding; double strand, one strand shown; scale: fold enrichment (6-mer frequency, TF over GST control)", "values": [
      {"sequence": "TCCGAC", "binding signal": 1.56},
      {"sequence": "ATGTTC", "binding signal": 1.14},
      {"sequence": "AACACA", "binding signal": 1.26},
      {"sequence": "ACTTAA", "binding signal": 1.24},
      {"sequence": "GGCTCC", "binding signal": 1.27},
      {"sequence": "CCCTAA", "binding signal": 1.28},
      {"sequence": "TCTAGC", "binding signal": 1.44},
      {"sequence": "TTACGA", "binding signal": 1.09},
      {"sequence": "TATAAC", "binding signal": 1.18},
      {"sequence": "ACGGCC", "binding signal": 0.973},
      {"sequence": "GATGCT", "binding signal": 1.2},
      {"sequence": "GGAAGC", "binding signal": 1.77},
      {"sequence": "ATACAA", "binding signal": 1.31},
      {"sequence": "ACTGCG", "binding signal": 1.25},
      {"sequence": "TAACCT", "binding signal": 1.43},
      {"sequence": "TACCAA", "binding signal": 1.05},
      {"sequence": "CTTTCC", "binding signal": 2.1},
      {"sequence": "TGTATC", "binding signal": 1.44},
      {"sequence": "TGAAAC", "binding signal": 1.33},
      {"sequence": "CTAATA", "binding signal": 1.06},
      {"sequence": "AACTCG", "binding signal": 1.24},
      {"sequence": "CCGATG", "binding signal": 0.959},
      {"sequence": "ACCTCG", "binding signal": 0.981},
      {"sequence": "CTTCGG", "binding signal": 1.38},
      {"sequence": "GGTATT", "binding signal": 1.15},
      {"sequence": "CTCAAT", "binding signal": 1.34},
      {"sequence": "CAATTG", "binding signal": 1.23},
      {"sequence": "CTCCTA", "binding signal": 1.24},
      {"sequence": "CGTCCC", "binding signal": 1.57},
      {"sequence": "GCTTTA", "binding signal": 1.24}
    ]},
    {"biological_target": "T2, ETS2 (UniProt P15036)", "T2 sequence": "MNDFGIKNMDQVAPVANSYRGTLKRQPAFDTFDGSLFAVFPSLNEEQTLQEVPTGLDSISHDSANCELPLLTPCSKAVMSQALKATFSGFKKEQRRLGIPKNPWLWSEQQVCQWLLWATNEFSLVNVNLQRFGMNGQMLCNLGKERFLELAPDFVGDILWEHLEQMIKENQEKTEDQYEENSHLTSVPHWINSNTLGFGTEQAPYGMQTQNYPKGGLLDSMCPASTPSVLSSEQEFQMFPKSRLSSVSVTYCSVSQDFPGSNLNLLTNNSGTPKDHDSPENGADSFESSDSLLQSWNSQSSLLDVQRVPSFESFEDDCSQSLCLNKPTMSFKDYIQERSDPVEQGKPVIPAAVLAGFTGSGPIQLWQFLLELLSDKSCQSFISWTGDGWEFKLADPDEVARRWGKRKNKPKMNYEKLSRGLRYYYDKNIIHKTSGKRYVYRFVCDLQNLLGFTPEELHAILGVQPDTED", "experiment": "DAPPL (digital affinity profiling via proximity ligation, sequencing)", "settings": "10 mM Tris-HCl pH 7.5, 50 mM NaCl, 1 mM DTT, 4% glycerol, room temperature, 30 min; GST-TFs on glutathione beads, 16-mer random dsDNA library, 0.1% …; high values mean tight binding; double strand, one strand shown; scale: fold enrichment (6-mer frequency, TF over GST control)", "values": [
      {"sequence": "TCCGAC", "binding signal": 1.48},
      {"sequence": "ATGTTC", "binding signal": 1.25},
      {"sequence": "AACACA", "binding signal": 1.38},
      {"sequence": "ACTTAA", "binding signal": 1.19},
      {"sequence": "GGCTCC", "binding signal": 1.21},
      {"sequence": "CCCTAA", "binding signal": 1.15},
      {"sequence": "TCTAGC", "binding signal": 1.3},
      {"sequence": "TTACGA", "binding signal": 1.14},
      {"sequence": "TATAAC", "binding signal": 1.25},
      {"sequence": "ACGGCC", "binding signal": 1.1},
      {"sequence": "GATGCT", "binding signal": 1.25},
      {"sequence": "GGAAGC", "binding signal": 1.6},
      {"sequence": "ATACAA", "binding signal": 1.19},
      {"sequence": "ACTGCG", "binding signal": 1.35},
      {"sequence": "TAACCT", "binding signal": 1.31},
      {"sequence": "TACCAA", "binding signal": 1.18},
      {"sequence": "CTTTCC", "binding signal": 2.1},
      {"sequence": "TGTATC", "binding signal": 1.42},
      {"sequence": "TGAAAC", "binding signal": 1.3},
      {"sequence": "CTAATA", "binding signal": 1.18},
      {"sequence": "AACTCG", "binding signal": 1.31},
      {"sequence": "CCGATG", "binding signal": 0.963},
      {"sequence": "ACCTCG", "binding signal": 1.11},
      {"sequence": "CTTCGG", "binding signal": 1.48},
      {"sequence": "GGTATT", "binding signal": 1.2},
      {"sequence": "CTCAAT", "binding signal": 1.21},
      {"sequence": "CAATTG", "binding signal": 1.26},
      {"sequence": "CTCCTA", "binding signal": 1.32},
      {"sequence": "CGTCCC", "binding signal": 1.38},
      {"sequence": "GCTTTA", "binding signal": 1.2}
    ]},
    {"biological_target": "T3, ETV3 (UniProt P41162-2)", "T3 sequence": "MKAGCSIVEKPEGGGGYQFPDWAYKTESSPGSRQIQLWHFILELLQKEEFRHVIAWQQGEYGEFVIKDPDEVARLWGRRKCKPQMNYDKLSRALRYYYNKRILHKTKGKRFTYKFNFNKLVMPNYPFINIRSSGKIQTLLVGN", "experiment": "DAPPL (digital affinity profiling via proximity ligation, sequencing)", "settings": "10 mM Tris-HCl pH 7.5, 50 mM NaCl, 1 mM DTT, 4% glycerol, room temperature, 30 min; GST-TFs on glutathione beads, 16-mer random dsDNA library, 0.1% …; high values mean tight binding; double strand, one strand shown; scale: fold enrichment (6-mer frequency, TF over GST control)", "values": [
      {"sequence": "AATACA", "binding signal": 1.28},
      {"sequence": "TCCTCT", "binding signal": 1.63},
      {"sequence": "AAGGAA", "binding signal": 1.37},
      {"sequence": "CCCTAA", "binding signal": 1.2},
      {"sequence": "GATGCT", "binding signal": 1.29},
      {"sequence": "GATGGT", "binding signal": 1.12},
      {"sequence": "CCTATT", "binding signal": 1.52},
      {"sequence": "CACTTA", "binding signal": 1.24},
      {"sequence": "TAACCT", "binding signal": 1.31},
      {"sequence": "CGCTAG", "binding signal": 0.99},
      {"sequence": "TAAAAT", "binding signal": 1.17},
      {"sequence": "TAATGA", "binding signal": 1.1},
      {"sequence": "TTCCTG", "binding signal": 2.66},
      {"sequence": "CGTCCC", "binding signal": 1.41}
    ]}
  ]
}
